System: RNA polymerase II
Test: Inhibition of phosphorylation of RNA polymerase II in NCI-H82 cells
Format: cell-based
Details: dose-response curve fit, 2 hours
Procedure: CDK12 and CDK13 phosphorylate RNA polymerase II. The ability of compound 1 to inhibit phosphorylation of RNA polymerase II was analyzed in NCI-H82 cells. 200,000 cells were plated in each well of a 96 well MSD plate. Cells were treated with compound 1, THZ531 (a positive control), or E9 at concentrations between 4 μM to 126.4 pM (0.5 log serial dilutions) for 2 hours. THZ531 and E9 are further discussed in Gao et al, Cell Chemical Biology 2017. The amount of phosphorylated RNA polymerase II and the total amount of RNA polymerase II was analyzed using antibodies. The values were normalized by taking the ratio of the phosphorylated RNA polymerase II to the total RNA polymerase II. As depicted in FIG. 3A (THZ531), FIG. 3B (Compound 1), and Table 6, increasing the concentration of compound 1 results in a dose-specific increase in the inhibition of phosphorylation of RNA polymerase II.

| Compound | Bottom | Hill Slope | Top |
| --- | --- | --- | --- |
| C=CC(=O)Nc1ccc(C(=O)N2CC[C@@H](Nc3ncc(Cl)c(OC)n3)C2)cc1 [Compound 1, (R)-N-(4-(3-((5-chloro-4-methoxypyrimidin-2-yl)amino)pyrrolidine-1-carbonyl)phenyl)acrylamide] | 0.1958 | 1.438 | 85.35 |
| CN(C)C/C=C/C(=O)Nc1ccc(C(=O)N2CCC[C@@H](Nc3ncc(Cl)c(-c4c[nH]c5ccccc45)n3)C2)cc1 [THZ531, reference compound] | 9.677 | 1.412 | 83.25 |

— patent publication US20230074545A1, “TREATMENT OF CANCER WITH CDK12/13 INHIBITORS” (Kinnate Biopharma Inc., priority 2019, published 2023)
